Experimental data reported in patent US20050227289A1 (published 2005).
These are yes or no findings as the source states them, for the method shown. Some entries that bind do so weakly or less than the wild type.

Assays:
[1] = biological target: T1, soluble EpoR (EposR), soluble recombinant human erythropoietin receptor (human) (UniProt P19235); experiment: off-rate analysis on yeast, flow cytometry, 0.5 µM EposR, competition with Ab12 IgG1, detection with MAB307 and anti-mouse PE
T1 sequence (looked up): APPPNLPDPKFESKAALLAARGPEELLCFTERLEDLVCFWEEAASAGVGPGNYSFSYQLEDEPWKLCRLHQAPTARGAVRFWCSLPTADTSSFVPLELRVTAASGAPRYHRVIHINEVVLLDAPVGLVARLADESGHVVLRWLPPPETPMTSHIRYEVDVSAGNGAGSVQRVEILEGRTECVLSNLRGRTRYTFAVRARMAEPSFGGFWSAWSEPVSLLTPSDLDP

[2] = biological target: T1, soluble EpoR (EposR), soluble recombinant human erythropoietin receptor (human); experiment: equilibrium titration of soluble EpoR on yeast-displayed scFv at 37 C, flow cytometry, detection with MAB307 + anti-mouse RPE
[3] = biological target: T1, soluble EpoR (EposR), soluble recombinant human erythropoietin receptor (human); experiment: dissociation of pre-bound 0.5 uM EposR from yeast-displayed scFv at 37 C in the presence of excess Ab12 IgG1 as competitor, flow cytometry, detection with MAB307 + anti-mouse PE

binding [1]: binds
binding [2]: binds
binding [3]: binds
B1: Ab12 41/40 scFv (displayed on the surface of yeast) (scFv, not shown: large carriers)
scFv: GENKVEYAPALMALSQVQLQESGPGLVKPSETLSLTCTVSGASISSYYWSWIRQPPGKGLEWIGYIYYSGSTNYNPSLKSRVTISVDTSKNQFSLKLRSVTAADTAVYYCARERLGIGDYWGQGTLVTVSSGPAKELTPLKEAKVSDIQLTQSPSSLSASVGDRVTITCRASQGIRNDLGWYQQKPGKAPKRLIYAASSLQSGVPSRFSGSGSGTEFTLTISSLQPEDFATYYCLQHNTYPPTFGQGTKVEIK
